PubChem BioAssay AID686938 | Drosophila RNAi Screening Center, 2013

Aim: 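Fly genes required for calcium entry once internal stores are emptied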 (primary screen)
System: Drosophila S2R+ cells
Reagent: long dsRNA against Drosophila genes, about 0.25 µg dsRNA per well, roughly 10,000 cells
Duration: 5 days of knock-down before the calcium assay
Challenge: thapsigargin (SERCA pump blocker) to empty calcium stores; entry signal taken 4 min after adding it
Measured: 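Duplicate raw fluo-4 intensities per well from a plate reader, at rest and four minutes after thapsigargin emptied calcium stores; entry-to-rest ratio filled for only some wells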
Scale: calcium entry signal: higher = stronger calcium signal after store depletion; entry to resting ratio: higher = more calcium entry relative to resting level; resting calcium signal: higher = higher resting calcium signal
Units: calcium entry signal in fluorescence units; resting calcium signal in fluorescence units
Call rule: 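Hit if the duplicate-averaged plate z-score for entry over resting signal is under −3; wells with weak total dye signal (Fmax z < −2) or more than 5 off-targets removed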
Meaning of the calls: active = strongly reduced calcium entry; inactive = no strong reduction
The screen tested about 23,000 reagents; this is an unselected part of those with a known target gene and a result. Over the whole deposit, 75 (0.33%) were called active. 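Raw plate signals without normalisation; calls rest on plate z-scores that were not deposited; ratio present for only 364 wells.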 Entries without a mark were called inactive. Reagents against one gene are numbered here. A plus sign joins genes that one reagent is predicted to hit. Not stated in the record: the dose of the treatment.

ppk10 (pickpocket 10) scored calcium entry signal, replicate 1 = 3.30e7; calcium entry signal, replicate 2 = 5.04e7; resting calcium signal, replicate 1 = 1.71e7; resting calcium signal, replicate 2 = 2.22e7. Against CG10431 the deposit lists calcium entry signal, replicate 1 = 4.38e7; calcium entry signal, replicate 2 = 5.55e7; resting calcium signal, replicate 1 = 2.28e7; resting calcium signal, replicate 2 = 2.26e7. asRNA:CR43159 + yellow-k gave calcium entry signal, replicate 1 = 5.75e7; calcium entry signal, replicate 2 = 5.15e7; resting calcium signal, replicate 1 = 2.24e7; resting calcium signal, replicate 2 = 2.10e7. Against CG9550, the entry reads calcium entry signal, replicate 1 = 2.23e7; calcium entry signal, replicate 2 = 1.82e7; resting calcium signal, replicate 1 = 1.21e7; resting calcium signal, replicate 2 = 9.12e6. Against PPP4R2r (Protein phosphatase 4 regulatory subunit 2-related protein) #1, the entry reads calcium entry signal, replicate 1 = 3.02e7; calcium entry signal, replicate 2 = 4.73e7; resting calcium signal, replicate 1 = 1.60e7; resting calcium signal, replicate 2 = 2.75e7. Against PPP4R2r (Protein phosphatase 4 regulatory subunit 2-related protein) #2, the entry reads calcium entry signal, replicate 1 = 2.77e7; calcium entry signal, replicate 2 = 4.16e7; resting calcium signal, replicate 1 = 1.50e7; resting calcium signal, replicate 2 = 1.80e7.

After knock-down of CG30060, the record shows calcium entry signal, replicate 1 = 3.15e7; calcium entry signal, replicate 2 = 4.36e7; resting calcium signal, replicate 1 = 1.52e7; resting calcium signal, replicate 2 = 1.88e7.

2 entries from above, reformatted:
{"predicted target": "CG9550", "dsRNA no.": 1, "calcium entry signal, replicate 1": 2.23e7, "calcium entry signal, replicate 2": 1.82e7, "resting calcium signal, replicate 1": 1.21e7, "resting calcium signal, replicate 2": 9.12e6}
{"predicted target": "PPP4R2r (Protein phosphatase 4 regulatory subunit 2-related protein)", "dsRNA no.": 1, "calcium entry signal, replicate 1": 3.02e7, "calcium entry signal, replicate 2": 4.73e7, "resting calcium signal, replicate 1": 1.60e7, "resting calcium signal, replicate 2": 2.75e7}

Continued:
Knock-down of 5-HT1A (5-hydroxytryptamine (serotonin) receptor 1A) came out at: calcium entry signal, replicate 1 = 4.33e7; calcium entry signal, replicate 2 = 3.76e7; resting calcium signal, replicate 1 = 1.90e7; resting calcium signal, replicate 2 = 1.80e7. For Odc1 (Ornithine decarboxylase 1), the values are calcium entry signal, replicate 1 = 3.52e7; calcium entry signal, replicate 2 = 3.06e7; resting calcium signal, replicate 1 = 1.54e7; resting calcium signal, replicate 2 = 1.54e7. After knock-down of CG2841 #1, the screen gave calcium entry signal, replicate 1 = 4.82e7; calcium entry signal, replicate 2 = 5.55e7; resting calcium signal, replicate 1 = 2.30e7; resting calcium signal, replicate 2 = 2.78e7. After knock-down of CG2841 #2 the results were calcium entry signal, replicate 1 = 3.27e7; calcium entry signal, replicate 2 = 3.51e7; entry to resting ratio 2.1; resting calcium signal, replicate 1 = 1.54e7; resting calcium signal, replicate 2 = 1.63e7. Knock-down of CG2841 #3 resulted in: calcium entry signal, replicate 1 = 3.79e7; calcium entry signal, replicate 2 = 4.12e7; resting calcium signal, replicate 1 = 2.05e7; resting calcium signal, replicate 2 = 2.33e7.
